The test has as its system diabetic patients. Put plainly: HbA1c (glycated hemoglobin) of the patient under the prescription. Particulars: Case (18), person; as of April 27 (2020); loss of appetite and weight loss. It counts as in vivo, human. The protocol: For each prescription example, the glycemic status of the patient that is dependent on the administered active components and the component amount is measured using HbA1c (glycated hemoglobin) along with changes in the lactic acid value, and opinion of the doctor is recorded together with the change in the values.

Regarding `CN(C)C(=N)NC(=N)N.Cl` [metformin, metformin hydrochloride], the HbA1c turned out to be 5.3.

The record behind these values is patent publication US11701336B2, “Method of determining composition effective for treating diabetes” (priority 2015, dated 2023).
